## Screening data

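Genome-wide siRNA knockdown in TC32 Ewing sarcoma cells, comparing luciferase light from an NR0B1-promoter reporter with a CMV-promoter reporter 48 hours after transfection. Each siRNA was applied at 20 nM. A z-score of the log NR0B1-over-CMV signal, less the median of siRNAs with the same seed; more negative means a stronger specific loss of the NR0B1 reporter.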

This is part of the screen; most of the strongest results are not listed here. Sequences are the guide (antisense) strand, without overhang.

| # | strand | target gene | seed-corrected z-score |
|---|---|---|---|
| 1 | `CUCCUUGCGCUCACAGUCA` | LINC00869 | -0.4561 |
| 2 | `UACCAUAGAAACUUGUUUC` | MEIG1 | -0.2397 |
| 3 | `UACCUUGAGACAGUACUCG` | TTC9B | 0.382 |
| 4 | `UUGGGUCGCAAGUAAGGCG` | SYDE1 | -1.122 |
| 5 | `UAUAUUCAGAAUUCUUUCC` | MEGF10 | 0.3012 |
| 6 | `AUUGCGAAGAUGUUGAUGU` | CYP4F8 | 0.02023 |
| 7 | `UUUAGUUCCAGGCAGUUUC` | HN1 | 1.495 |
| 8 | `UGUCAUGCGAUUCUUAUCU` | ARHGAP9 | 0.06878 |
| 9 | `UCCCAGUCCAGAUUCACCU` | SEPT7P2 | -1.518 |
| 10 | `UUAGUGGUCAAUGUGUGAC` | LINC00381 | 0.1673 |
| 11 | `UCUGAGUAAAGUGGGUUCC` | SP140L | 0.2812 |
| 12 | `UCCUCUGAAAACUCGUUGC` | TFG | -0.3452 |
| 13 | `AUAAAUCUAAGCUUGGGUU` | MRPL16 | 0.7104 |
| 14 | `UUAGAUUCUAUGCCCUUCC` | EFCC1 | 0.41 |
| 15 | `AAAGCGACUCUAUAAUCCC` | RSAD2 | -0.6193 |
| 16 | `GAAGGUGAUGGUCUCGUAG` | LOC645852 | -0.1513 |
| 17 | `UAAGGAUCGUUCUUGAUGC` | RIN2 | 0.4534 |
| 18 | `AAGGUAACCACUUGUGAGC` | COL21A1 | 0.6378 |
| 19 | `UUAUCGUCAUCCAUAAUUC` | CAPSL | 0.04893 |
| 20 | `UCACCUUCAAUUUGCAGUU` | SAMD12 | 0.8518 |
| 21 | `UAUUCUGUAAAGUAGUCUG` | SLC39A12 | -0.1942 |
| 22 | `UUUGACUCCAGUUAUUUGU` | HSD17B11 | 0.5065 |
| 23 | `UCUGUCAUUACUGUCAACC` | MGC57346 | -1.036 |
| 24 | `AACUGUUCCAUUAAUUGCC` | MTMR8 | -0.7895 |
| 25 | `UAUCAGGUUAUUCUGCAGG` | OPTC | -0.5605 |
| 26 | `UUCGUUUUCUUGUUGGGCA` | BEX4 | -1.164 |
| 27 | `UCCCAUCCCAGAACUCCGU` | HCFC1R1 | -0.6735 |
| 28 | `UCAUGUCUCGGAAGGGUGG` | TOP3B | -1.698 |
| 29 | `UGCUCUCAAAUUGUGAUGC` | VAMP1 | -0.03865 |
| 30 | `UGCAAAGCAACCCUGAACC` | FRS3 | 0.03469 |
| 31 | `UCUCGUAGCAGUAGGCCUC` | SLC34A3 | 1.086 |
| 32 | `UGAAGAAAAACCUGUAGGC` | PKDCC | 0.5124 |
| 33 | `UCUCUAUCAAGUCAGGAUC` | UBA6 | 0.4718 |
| 34 | `UCACAUCUAGGUUAACGGC` | LRRC37A3 | -0.5895 |
| 35 | `UCAGAGCUGAGCUUCGUGG` | WDR81 | 1.445 |
| 36 | `UUUCGAGUUUUGUUGUGCC` | SERPINB5 | 0.04637 |
| 37 | `UCAGGAAGCUCGAUUUUGG` | C20orf85 | 0.8105 |
| 38 | `UAUGAUACUCAAUAACUCG` | TEX14 | -0.2483 |
| 39 | `UUCCCGGCAAGUCUUCUCC` | DUS3L | -0.05967 |
| 40 | `UUAUCCUCCUGAUCAAAUC` | ANP32E | -0.9014 |
| 41 | `UCAUAAAUGAUUCCUCCGG` | OSTCP2 | -0.4428 |
| 42 | `AAACGAUUUCCUUUAAGUG` | VPS33A | 0.9161 |
| 43 | `UUUGCGAUUCCUCAGCACC` | TTC6 | -0.3168 |
| 44 | `AUGUCUCUGACGAACGUGC` | TBC1D24 | -0.4063 |
| 45 | `UUAGAUUUAUCCAUCUUAG` | KERA | 0.0002816 |
| 46 | `UACACUUGCAGCUUCAUCU` | COX10 | -0.6454 |
| 47 | `UCUUCGAUAAGACACGUAG` | SORCS3 | 0.4929 |
| 48 | `UACGUAACAUAAUCUUGGG` | SMYD4 | 0.3857 |
| 49 | `UCCAUAAACACCGCCUUGC` | DLX1 | -0.7907 |
| 50 | `AACAUCCUCAAUUAUAACC` | IQCF2 | -1.091 |
| 51 | `UACGUUUUGGAGAUGCUUC` | ERAP1 | 0.0002591 |
| 52 | `UAUGAUGGAAGGGUAGCUG` | BRCA1 | 0.7353 |
| 53 | `UCUCUUUCCGGCACCCUCU` | TMIE | 1.794 |
| 54 | `UAAAGAUUAGGGAUUUACG` | FOXJ1 | -0.1502 |
| 55 | `UAUUUACCAUCAUCUUAGC` | PRSS35 | 0.2681 |
| 56 | `UAACCUUUCCUUGUAUACC` | EIF4E | 0.9445 |
| 57 | `UUCUUAUCGAGAGCUAUGC` | MYH4 | 1.094 |
| 58 | `UCCGCAUCCUCCAUCAUCC` | C19orf25 | -0.1099 |

Once more, the final 7:

| strand | target gene | seed-corrected z-score |
|---|---|---|
| `UAUGAUGGAAGGGUAGCUG` | BRCA1 | 0.7353 |
| `UCUCUUUCCGGCACCCUCU` | TMIE | 1.794 |
| `UAAAGAUUAGGGAUUUACG` | FOXJ1 | -0.1502 |
| `UAUUUACCAUCAUCUUAGC` | PRSS35 | 0.2681 |
| `UAACCUUUCCUUGUAUACC` | EIF4E | 0.9445 |
| `UUCUUAUCGAGAGCUAUGC` | MYH4 | 1.094 |
| `UCCGCAUCCUCCAUCAUCC` | C19orf25 | -0.1099 |

Source: PubChem BioAssay AID1159506 (NCATS, 2015).